From PMC11291266 come the findings set out here.

Chains of the proteins cited; added tags and fusions are not shown.
UniProt Q9BSU1: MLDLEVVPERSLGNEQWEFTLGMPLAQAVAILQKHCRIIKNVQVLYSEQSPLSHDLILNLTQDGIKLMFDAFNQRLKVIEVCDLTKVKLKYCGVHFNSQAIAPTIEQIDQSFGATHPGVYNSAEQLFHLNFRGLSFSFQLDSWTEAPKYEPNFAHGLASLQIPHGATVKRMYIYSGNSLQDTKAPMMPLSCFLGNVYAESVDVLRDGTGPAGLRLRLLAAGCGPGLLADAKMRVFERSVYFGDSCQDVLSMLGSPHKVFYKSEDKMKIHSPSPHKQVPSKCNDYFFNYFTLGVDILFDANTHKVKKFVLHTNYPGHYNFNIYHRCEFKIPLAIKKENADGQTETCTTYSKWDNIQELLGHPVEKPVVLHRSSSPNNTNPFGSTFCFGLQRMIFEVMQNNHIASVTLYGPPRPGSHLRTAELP
UniProt Q9H6U6: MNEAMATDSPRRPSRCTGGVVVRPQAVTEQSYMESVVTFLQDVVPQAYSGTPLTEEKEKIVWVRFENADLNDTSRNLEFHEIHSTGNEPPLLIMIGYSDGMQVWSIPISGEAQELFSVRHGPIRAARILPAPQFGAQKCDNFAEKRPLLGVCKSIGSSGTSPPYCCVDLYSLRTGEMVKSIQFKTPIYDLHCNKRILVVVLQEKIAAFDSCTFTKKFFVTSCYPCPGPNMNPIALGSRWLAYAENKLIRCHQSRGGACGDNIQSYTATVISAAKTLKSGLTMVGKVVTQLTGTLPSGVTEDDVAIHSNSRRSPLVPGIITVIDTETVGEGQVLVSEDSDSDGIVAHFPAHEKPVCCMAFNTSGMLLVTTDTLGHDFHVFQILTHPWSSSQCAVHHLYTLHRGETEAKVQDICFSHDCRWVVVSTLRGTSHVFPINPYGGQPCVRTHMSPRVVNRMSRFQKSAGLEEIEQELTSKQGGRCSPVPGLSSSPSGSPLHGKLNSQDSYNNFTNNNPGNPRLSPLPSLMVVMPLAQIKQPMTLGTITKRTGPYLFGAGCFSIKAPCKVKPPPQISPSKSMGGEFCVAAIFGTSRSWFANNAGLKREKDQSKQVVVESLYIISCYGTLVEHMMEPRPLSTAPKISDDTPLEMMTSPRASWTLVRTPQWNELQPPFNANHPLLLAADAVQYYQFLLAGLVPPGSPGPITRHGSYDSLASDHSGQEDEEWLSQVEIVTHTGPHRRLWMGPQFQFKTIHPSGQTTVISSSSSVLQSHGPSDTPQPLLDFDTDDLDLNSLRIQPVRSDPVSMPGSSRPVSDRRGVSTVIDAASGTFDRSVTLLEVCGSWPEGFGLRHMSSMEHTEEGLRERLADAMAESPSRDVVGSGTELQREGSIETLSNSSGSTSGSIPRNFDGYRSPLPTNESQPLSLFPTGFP

These are yes or no findings as the source states them, for the method shown. Binding seen in cells or lysates may run through a third protein. Here binding means that the protein was enriched with, or labelled near, the bait; the list need not be complete.

In the assay the target is endogenous HA-tagged MYTHO (human (endogenous in HeLa)) (UniProt Q9BSU1). Nature of the assay: affinity purification with mass spectrometry; immunoprecipitated endogenous HA-tagged MYTHO; proteomic analysis of the precipitate.

As for “endogenous BCAS3 (from UniProt Q9H6U6 1-928)”, the binding entry was “binds”.

As to p62/SQSTM1 (from UniProt Q13501 1-440), the binding result is on record as “binds”.
